Assay results reported in the supplement of paper PMC10849652.
Some of the results follow.

Protein sequences, listed by entry. Tags and fused reporters are not part of them. Lines headed by an entry give the natural chain unless they say otherwise; changes in a name come on top.
UniProt Q93100: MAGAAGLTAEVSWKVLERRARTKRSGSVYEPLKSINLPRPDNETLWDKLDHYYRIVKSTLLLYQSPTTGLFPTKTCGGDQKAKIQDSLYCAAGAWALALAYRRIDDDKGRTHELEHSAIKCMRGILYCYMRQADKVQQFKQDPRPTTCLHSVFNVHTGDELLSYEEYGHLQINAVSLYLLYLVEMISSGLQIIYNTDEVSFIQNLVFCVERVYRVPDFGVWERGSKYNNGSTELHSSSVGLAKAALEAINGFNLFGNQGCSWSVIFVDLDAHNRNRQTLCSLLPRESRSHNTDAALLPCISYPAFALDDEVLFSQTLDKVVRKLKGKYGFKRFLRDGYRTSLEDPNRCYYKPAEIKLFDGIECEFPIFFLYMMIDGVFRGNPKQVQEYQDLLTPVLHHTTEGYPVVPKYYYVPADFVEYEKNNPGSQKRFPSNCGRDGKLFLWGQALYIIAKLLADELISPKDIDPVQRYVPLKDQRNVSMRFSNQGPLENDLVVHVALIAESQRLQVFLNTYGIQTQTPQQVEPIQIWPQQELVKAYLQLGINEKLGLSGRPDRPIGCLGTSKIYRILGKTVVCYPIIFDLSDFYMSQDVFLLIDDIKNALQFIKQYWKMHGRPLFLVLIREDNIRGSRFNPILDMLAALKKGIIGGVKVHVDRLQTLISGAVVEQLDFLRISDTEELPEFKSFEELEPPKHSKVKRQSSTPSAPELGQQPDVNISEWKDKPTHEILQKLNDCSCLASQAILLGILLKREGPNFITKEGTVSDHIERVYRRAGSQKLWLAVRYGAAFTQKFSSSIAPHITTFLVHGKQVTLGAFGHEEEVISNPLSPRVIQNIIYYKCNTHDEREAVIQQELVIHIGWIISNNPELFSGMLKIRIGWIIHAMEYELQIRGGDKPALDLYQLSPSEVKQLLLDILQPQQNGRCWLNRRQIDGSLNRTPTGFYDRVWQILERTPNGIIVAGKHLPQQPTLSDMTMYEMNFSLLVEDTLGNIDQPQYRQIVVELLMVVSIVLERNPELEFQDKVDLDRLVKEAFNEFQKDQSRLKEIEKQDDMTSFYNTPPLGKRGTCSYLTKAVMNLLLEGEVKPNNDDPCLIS
UniProt Q9BUL5: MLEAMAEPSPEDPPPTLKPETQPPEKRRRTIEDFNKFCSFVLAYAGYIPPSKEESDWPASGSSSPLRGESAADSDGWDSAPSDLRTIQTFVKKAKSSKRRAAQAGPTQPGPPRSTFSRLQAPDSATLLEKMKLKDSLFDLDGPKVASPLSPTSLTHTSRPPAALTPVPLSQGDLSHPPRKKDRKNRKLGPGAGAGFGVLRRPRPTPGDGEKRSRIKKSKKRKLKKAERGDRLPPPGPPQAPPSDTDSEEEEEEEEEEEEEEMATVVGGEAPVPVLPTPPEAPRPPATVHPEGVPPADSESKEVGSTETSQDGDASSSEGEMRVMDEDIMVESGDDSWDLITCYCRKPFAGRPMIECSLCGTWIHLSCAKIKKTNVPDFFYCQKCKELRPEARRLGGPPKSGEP
UniProt Q92576, whole entry, looked up: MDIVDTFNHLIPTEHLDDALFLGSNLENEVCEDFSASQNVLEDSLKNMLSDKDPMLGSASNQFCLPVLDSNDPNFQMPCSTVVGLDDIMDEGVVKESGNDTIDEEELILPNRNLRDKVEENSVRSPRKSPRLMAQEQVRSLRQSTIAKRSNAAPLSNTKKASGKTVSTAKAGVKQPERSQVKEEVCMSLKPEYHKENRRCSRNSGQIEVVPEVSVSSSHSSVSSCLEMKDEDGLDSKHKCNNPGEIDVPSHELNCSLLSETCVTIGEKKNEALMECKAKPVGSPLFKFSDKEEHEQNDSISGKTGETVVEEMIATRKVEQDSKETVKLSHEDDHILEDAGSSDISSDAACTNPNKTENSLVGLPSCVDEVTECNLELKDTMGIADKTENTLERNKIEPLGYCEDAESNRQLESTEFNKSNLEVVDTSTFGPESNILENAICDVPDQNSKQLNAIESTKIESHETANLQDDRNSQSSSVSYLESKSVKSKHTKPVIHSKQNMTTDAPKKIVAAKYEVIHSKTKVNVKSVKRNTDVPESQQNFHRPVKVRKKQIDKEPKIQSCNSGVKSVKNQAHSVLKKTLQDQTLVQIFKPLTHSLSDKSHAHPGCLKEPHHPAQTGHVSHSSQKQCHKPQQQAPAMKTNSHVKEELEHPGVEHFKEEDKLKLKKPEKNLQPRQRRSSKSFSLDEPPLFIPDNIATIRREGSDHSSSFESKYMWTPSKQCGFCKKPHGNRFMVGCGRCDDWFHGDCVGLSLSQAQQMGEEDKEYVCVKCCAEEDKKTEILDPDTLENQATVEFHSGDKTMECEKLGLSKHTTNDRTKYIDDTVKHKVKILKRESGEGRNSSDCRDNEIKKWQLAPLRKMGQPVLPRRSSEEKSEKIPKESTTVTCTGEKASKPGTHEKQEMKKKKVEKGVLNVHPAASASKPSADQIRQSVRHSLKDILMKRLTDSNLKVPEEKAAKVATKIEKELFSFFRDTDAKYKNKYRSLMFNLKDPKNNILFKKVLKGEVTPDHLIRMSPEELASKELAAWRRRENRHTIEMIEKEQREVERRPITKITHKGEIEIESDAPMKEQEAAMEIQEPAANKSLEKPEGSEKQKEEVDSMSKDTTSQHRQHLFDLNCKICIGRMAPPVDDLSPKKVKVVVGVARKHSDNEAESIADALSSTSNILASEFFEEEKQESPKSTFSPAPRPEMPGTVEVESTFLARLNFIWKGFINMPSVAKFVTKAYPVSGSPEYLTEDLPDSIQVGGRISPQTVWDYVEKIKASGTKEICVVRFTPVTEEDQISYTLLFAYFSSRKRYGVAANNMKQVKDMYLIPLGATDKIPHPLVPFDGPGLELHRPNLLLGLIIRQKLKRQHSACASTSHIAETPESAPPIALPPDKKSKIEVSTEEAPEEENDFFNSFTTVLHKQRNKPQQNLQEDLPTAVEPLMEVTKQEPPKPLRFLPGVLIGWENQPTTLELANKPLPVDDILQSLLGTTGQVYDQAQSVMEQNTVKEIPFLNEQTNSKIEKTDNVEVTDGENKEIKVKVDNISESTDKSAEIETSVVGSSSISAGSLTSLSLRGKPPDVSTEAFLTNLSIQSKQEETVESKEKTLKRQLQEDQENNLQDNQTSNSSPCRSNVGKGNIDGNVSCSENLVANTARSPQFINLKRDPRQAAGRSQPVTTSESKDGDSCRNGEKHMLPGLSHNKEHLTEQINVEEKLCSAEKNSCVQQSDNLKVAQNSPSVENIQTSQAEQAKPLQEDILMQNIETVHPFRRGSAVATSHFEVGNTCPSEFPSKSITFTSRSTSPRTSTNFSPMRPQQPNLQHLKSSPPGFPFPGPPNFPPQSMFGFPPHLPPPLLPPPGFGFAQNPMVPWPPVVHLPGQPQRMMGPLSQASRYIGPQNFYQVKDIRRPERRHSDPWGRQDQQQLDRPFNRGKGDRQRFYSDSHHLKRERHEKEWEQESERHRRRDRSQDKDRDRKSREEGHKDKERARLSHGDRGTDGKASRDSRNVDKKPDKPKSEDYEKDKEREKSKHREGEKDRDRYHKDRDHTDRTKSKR
UniProt Q16875: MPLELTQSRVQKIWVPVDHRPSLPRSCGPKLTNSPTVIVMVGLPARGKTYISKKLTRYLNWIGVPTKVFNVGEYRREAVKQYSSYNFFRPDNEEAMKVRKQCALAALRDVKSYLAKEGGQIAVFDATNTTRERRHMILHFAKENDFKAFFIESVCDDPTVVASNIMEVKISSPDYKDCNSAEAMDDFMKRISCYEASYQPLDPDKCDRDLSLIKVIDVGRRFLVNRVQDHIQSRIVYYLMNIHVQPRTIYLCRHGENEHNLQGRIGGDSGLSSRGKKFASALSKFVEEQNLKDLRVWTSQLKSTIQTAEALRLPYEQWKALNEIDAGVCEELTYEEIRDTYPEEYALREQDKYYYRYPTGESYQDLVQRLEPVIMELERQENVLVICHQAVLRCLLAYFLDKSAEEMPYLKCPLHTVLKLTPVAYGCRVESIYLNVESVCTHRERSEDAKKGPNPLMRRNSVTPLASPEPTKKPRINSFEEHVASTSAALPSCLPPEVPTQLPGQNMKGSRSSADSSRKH
UniProt Q9NWS0, whole entry, looked up: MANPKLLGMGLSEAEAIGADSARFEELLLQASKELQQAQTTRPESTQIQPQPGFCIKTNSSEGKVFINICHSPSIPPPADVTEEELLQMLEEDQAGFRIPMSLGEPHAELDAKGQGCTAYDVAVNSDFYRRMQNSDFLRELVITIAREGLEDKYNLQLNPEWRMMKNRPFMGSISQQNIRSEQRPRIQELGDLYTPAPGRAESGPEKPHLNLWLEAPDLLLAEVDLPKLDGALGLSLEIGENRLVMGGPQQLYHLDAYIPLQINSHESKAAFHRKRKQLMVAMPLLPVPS
UniProt Q4KWH8: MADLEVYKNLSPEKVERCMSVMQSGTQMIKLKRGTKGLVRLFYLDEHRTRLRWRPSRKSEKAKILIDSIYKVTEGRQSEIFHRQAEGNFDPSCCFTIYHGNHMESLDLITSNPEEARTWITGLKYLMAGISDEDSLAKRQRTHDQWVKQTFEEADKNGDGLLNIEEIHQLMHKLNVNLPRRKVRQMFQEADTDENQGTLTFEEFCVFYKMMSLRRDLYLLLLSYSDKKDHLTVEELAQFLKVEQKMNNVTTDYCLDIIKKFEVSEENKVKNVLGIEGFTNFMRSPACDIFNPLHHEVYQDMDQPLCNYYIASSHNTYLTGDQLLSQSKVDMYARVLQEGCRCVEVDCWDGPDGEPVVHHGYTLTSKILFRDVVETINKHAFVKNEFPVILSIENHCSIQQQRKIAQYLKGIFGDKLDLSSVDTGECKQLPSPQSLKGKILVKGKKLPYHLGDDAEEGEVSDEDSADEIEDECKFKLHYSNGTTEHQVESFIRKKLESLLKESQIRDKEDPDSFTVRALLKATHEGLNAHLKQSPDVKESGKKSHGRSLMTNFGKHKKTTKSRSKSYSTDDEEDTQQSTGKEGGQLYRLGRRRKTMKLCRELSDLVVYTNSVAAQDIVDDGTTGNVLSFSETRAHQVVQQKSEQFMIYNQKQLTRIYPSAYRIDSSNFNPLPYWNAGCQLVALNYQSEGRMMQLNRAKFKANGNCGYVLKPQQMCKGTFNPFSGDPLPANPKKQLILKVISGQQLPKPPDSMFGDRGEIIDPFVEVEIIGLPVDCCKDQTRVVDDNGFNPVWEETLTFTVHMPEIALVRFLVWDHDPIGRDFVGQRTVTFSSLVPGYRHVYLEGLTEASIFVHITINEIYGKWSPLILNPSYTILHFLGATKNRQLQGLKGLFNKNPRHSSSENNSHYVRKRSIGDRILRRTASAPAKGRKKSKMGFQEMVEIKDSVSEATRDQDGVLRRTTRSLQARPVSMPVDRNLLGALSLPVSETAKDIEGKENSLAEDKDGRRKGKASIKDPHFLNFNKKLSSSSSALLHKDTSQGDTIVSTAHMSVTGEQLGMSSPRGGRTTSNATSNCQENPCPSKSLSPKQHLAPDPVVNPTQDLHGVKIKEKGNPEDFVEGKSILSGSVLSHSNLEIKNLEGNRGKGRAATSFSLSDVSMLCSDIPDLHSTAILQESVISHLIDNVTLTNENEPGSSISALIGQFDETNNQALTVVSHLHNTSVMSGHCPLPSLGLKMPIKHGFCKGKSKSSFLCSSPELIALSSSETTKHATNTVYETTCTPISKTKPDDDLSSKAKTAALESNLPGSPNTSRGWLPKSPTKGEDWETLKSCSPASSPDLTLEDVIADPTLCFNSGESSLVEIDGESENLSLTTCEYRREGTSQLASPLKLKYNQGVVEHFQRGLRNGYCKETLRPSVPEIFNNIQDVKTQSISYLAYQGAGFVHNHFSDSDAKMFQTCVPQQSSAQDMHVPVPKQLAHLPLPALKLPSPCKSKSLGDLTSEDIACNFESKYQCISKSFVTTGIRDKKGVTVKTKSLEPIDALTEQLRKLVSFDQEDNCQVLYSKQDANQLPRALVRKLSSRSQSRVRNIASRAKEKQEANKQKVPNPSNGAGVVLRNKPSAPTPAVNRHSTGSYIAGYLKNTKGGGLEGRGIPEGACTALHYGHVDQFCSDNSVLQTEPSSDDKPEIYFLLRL
UniProt Q9H490: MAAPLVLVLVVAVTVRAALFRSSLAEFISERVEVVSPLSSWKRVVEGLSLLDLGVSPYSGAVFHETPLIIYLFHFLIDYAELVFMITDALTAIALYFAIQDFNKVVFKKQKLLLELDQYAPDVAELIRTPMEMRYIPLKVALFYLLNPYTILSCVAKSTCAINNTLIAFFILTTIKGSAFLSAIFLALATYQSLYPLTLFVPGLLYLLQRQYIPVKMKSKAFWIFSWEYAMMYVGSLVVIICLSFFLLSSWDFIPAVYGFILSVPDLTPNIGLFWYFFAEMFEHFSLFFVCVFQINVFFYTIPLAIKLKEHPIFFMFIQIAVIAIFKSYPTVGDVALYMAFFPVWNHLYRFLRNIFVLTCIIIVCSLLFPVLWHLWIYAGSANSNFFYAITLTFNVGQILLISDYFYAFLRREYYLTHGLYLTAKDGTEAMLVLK

What was measured:
Assay in all cases: log2 fold change, soluble protein after heating vs DMSO (PISA); higher = thermal stabilisation; K562 cells, 10 uM, 30 min; active = over 0.2 and 3.5 SD of the protein, either way, in both replicates (recomputed)
[1] = compound: CS(=O)(=O)c1ccc(-c2cnc(N)c(C(=O)Nc3ccccc3)n2)cc1
Procedure, shortened: (§1)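 Soluble protein was quantified by TMTpro 16plex LC-MS/MS after channel sums were equalised. It was obtained as the supernatant after 21,000xg for 90 min from pooled aliquots of K562 cells (2×10^6 cells/mL, 10 μM compound, 30 min) heated for 3 min across 48°C-58°C and extracted in PBS with 0.5% NP-40 at 4°C. Thermal stability values are relative to control samples and come from duplicates. They are given as log2 fold changes.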

crizotinib = compound: C[C@@H](Oc1cc(-c2cnn(C3CCNCC3)c2)cnc1N)c1c(Cl)ccc(F)c1Cl [crizotinib]
Procedure, shortened: as §1

[2] = compound: C[C@@H]1COCCN1C2=NC(=NC(=C2)C3(CC3)S(=O)(=O)C)C4=C5C=CNC5=CC=C4
Procedure, shortened: as §1

[3] = compound: C[C@H](C1=CC=C(C=C1)C(=O)NC2=C3C=CNC3=NC=C2)N
Procedure, shortened: as §1

duvelisib = compound: C[C@H](Nc1ncnc2nc[nH]c12)c1cc2cccc(Cl)c2c(=O)n1-c1ccccc1 [duvelisib]
Procedure, shortened: as §1

gandotinib = compound: Cc1cc(Nc2cc(CN3CCOCC3)c3nc(C)c(Cc4ccc(Cl)cc4F)n3n2)n[nH]1 [gandotinib]
Procedure, shortened: as §1

tozasertib = compound: Cc1cc(Nc2cc(N3CCN(C)CC3)nc(Sc3ccc(NC(=O)C4CC4)cc3)n2)n[nH]1 [tozasertib]
Procedure, shortened: as §1

[4] = compound: Cc1cc(SCc2sc(-c3ccc(C(F)(F)F)cc3)nc2C)ccc1OCC(=O)O
Procedure, shortened: as §1

doramapimod = compound: Cc1ccc(-n2nc(C(C)(C)C)cc2NC(=O)Nc2ccc(OCCN3CCOCC3)c3ccccc23)cc1 [doramapimod]
Procedure, shortened: as §1

ispinesib = compound: Cc1ccc(C(=O)N(CCCN)[C@@H](c2nc3cc(Cl)ccc3c(=O)n2Cc2ccccc2)C(C)C)cc1 [ispinesib]
Procedure, shortened: as §1

bafetinib = compound: Cc1ccc(NC(=O)c2ccc(CN3CC[C@H](N(C)C)C3)c(C(F)(F)F)c2)cc1Nc1nccc(-c2cncnc2)n1 [bafetinib]
Procedure, shortened: as §1

[5] = compound: Cc1cccc(CC(=O)N2CCc3c2ccc(-c2cn(C)c4ncnc(N)c24)c3F)n1
Procedure, shortened: as §1

nilotinib = compound: Cc1cn(-c2cc(NC(=O)c3ccc(C)c(Nc4nccc(-c5cccnc5)n4)c3)cc(C(F)(F)F)c2)cn1 [nilotinib]
Procedure, shortened: as §1

[6] = compound: Cc1nc(Nc2n[nH]c3c2CN(C(=O)N[C@H](CN(C)C)c2ccccc2)C3(C)C)c2sccc2n1
Procedure, shortened: as §1

dasatinib = compound: Cc1nc(Nc2ncc(C(=O)Nc3c(C)cccc3Cl)s2)cc(N2CCN(CCO)CC2)n1 [dasatinib]
Procedure, shortened: as §1

[7] = compound: Cc1ncc(-c2ccnc(Nc3ccc(S(C)(=O)=O)cc3)n2)n1C(C)C
Procedure, shortened: as §1

[8] = compound: Cn1cc(-c2ccc3c(c2)CCN3C(=O)Cc2cccc(C(F)(F)F)c2)c2c(N)ncnc21
Procedure, shortened: as §1

[9] = compound: Cn1cc(-c2ccc3nnc(C(F)(F)c4ccc5ncccc5c4)n3n2)cn1
Procedure, shortened: as §1

tipifarnib = compound: Cn1cncc1[C@@](N)(c1ccc(Cl)cc1)c1ccc2c(c1)c(-c1cccc(Cl)c1)cc(=O)n2C [tipifarnib]
Procedure, shortened: as §1

mubritinib = compound: FC(F)(F)c1ccc(/C=C/c2nc(COc3ccc(CCCCn4ccnn4)cc3)co2)cc1 [mubritinib]
Procedure, shortened: as §1

Measured: log2 fold change

PHKB isoform 3 (UniProt Q93100)
inactive: [1] -0.024 | crizotinib -0.033 | [2] 0.031 | [3] 0.128 | duvelisib -0.02 | gandotinib 0.049 | tozasertib 0.011 | [4] 0.062 | doramapimod 0.055 | ispinesib -0.107 | bafetinib 0.045 | [5] -0.004 | nilotinib -0.19 | [6] 0.037 | dasatinib -0.221 | [7] 0.001 | [8] -0.052 | [9] -0.023 | tipifarnib -0.027 | mubritinib 0.001

PIGA (UniProt P37287)
inactive: [1] 0.066 | crizotinib 0.022 | [2] 0.061 | [3] -0.054 | duvelisib 0.189 | gandotinib 0.195 | tozasertib 0.013 | [4] 0.143 | doramapimod -0.012 | ispinesib 0.077 | bafetinib -0.015 | [5] 0.074 | nilotinib 0.033 | [6] 0.018 | dasatinib 0.145 | [7] -0.026 | [8] 0.015 | [9] -0.034 | tipifarnib -0.042 | mubritinib 0.04

PHF23 (UniProt Q9BUL5)
inactive: [1] 0.009 | crizotinib 0.041 | [2] -0.003 | [3] -0.086 | duvelisib 0.004 | gandotinib 0.025 | tozasertib -0.014 | [4] -0.009 | doramapimod -0.014 | ispinesib -0.018 | bafetinib -0.053 | [5] -0.008 | nilotinib 0.06 | [6] -0.003 | dasatinib -0.007 | [7] -0.013 | [8] -0.018 | [9] 0.046 | tipifarnib 0.009 | mubritinib 0.029

PHF3 (UniProt Q92576)
inactive: [1] -0.091 | crizotinib -0.013 | [2] -0.074 | [3] 0.262 | duvelisib -0.091 | gandotinib 0.093 | tozasertib -0.095 | [4] 0.009 | doramapimod 0.115 | ispinesib -0.066 | bafetinib 0.107 | [5] -0.077 | nilotinib 0.023 | [6] 0.201 | dasatinib 0.085 | [7] 0.063 | [8] -0.142 | [9] -0.065 | tipifarnib 0.148 | mubritinib -0.039

PHGDH (UniProt O43175)
inactive: [1] 0.004 | crizotinib 0.029 | [2] 0.039 | [3] -0.065 | duvelisib 0.035 | gandotinib -0.024 | tozasertib 0.018 | [4] -0.019 | doramapimod -0.04 | ispinesib 0.047 | bafetinib -0.011 | [5] -0.017 | nilotinib 0.026 | [6] 0.001 | dasatinib 0.036 | [7] 0 | [8] 0.025 | [9] 0.024 | tipifarnib -0.033 | mubritinib 0.03

PFDN4 (UniProt Q9NQP4)
inactive: [1] -0.019 | crizotinib -0.067 | [2] -0.086 | [3] 0.01 | duvelisib 0.066 | gandotinib -0.082 | tozasertib -0.113 | [4] -0.05 | doramapimod 0.065 | ispinesib -0.077 | bafetinib -0.016 | [5] 0.044 | nilotinib 0.006 | [6] 0.005 | dasatinib 0.024 | [7] 0.002 | [8] -0.043 | [9] 0.034 | tipifarnib 0.078 | mubritinib 0.035

PFKFB3 isoform 4 (UniProt Q16875)
inactive: [1] 0 | crizotinib -0.008 | [2] 0.03 | [3] 0.011 | duvelisib 0.05 | gandotinib 0.066 | tozasertib -0.012 | [4] -0.064 | doramapimod -0.025 | ispinesib 0.033 | bafetinib -0.037 | [5] -0.034 | nilotinib -0.058 | [6] 0.016 | dasatinib -0.047 | [7] -0.02 | [8] -0.007 | [9] 0.041 | tipifarnib 0.005 | mubritinib 0.013

PIGN (UniProt O95427)
inactive: [1] -0.007 | crizotinib -0.004 | [2] 0.015 | [3] 0.276 | duvelisib 0.167 | gandotinib -0.175 | tozasertib 0.003 | [4] 0.068 | doramapimod 0.118 | ispinesib 0.03 | bafetinib -0.013 | [5] -0.012 | nilotinib 0.048 | [6] -0.248 | dasatinib 0.228 | [7] 0.031 | [8] -0.103 | [9] -0.014 | tipifarnib 0.206 | mubritinib 0.04

PIH1D1 (UniProt Q9NWS0)
inactive: [1] 0.031 | crizotinib -0.043 | [2] -0.006 | [3] 0.03 | duvelisib 0.094 | gandotinib -0.052 | tozasertib 0.059 | [4] -0.112 | doramapimod -0.006 | ispinesib -0.037 | bafetinib 0.076 | [5] 0.042 | nilotinib 0.034 | [6] -0.018 | dasatinib 0.028 | [7] 0.02 | [8] -0.014 | [9] -0.029 | tipifarnib -0.088 | mubritinib 0.018

PLCH1 (UniProt Q4KWH8)
inactive: [1] 0.045 | crizotinib -0.023 | [2] 0.023 | [3] 0.109 | duvelisib 0.023 | gandotinib -0.22 | tozasertib -0.08 | [4] 0.052 | doramapimod 0.008 | ispinesib -0.138 | bafetinib 0.059 | [5] -0.042 | nilotinib -0.128 | [6] -0.029 | dasatinib 0.01 | [7] 0.005 | [8] -0.03 | [9] 0.055 | tipifarnib 0.03 | mubritinib -0.008

Reprinted at random: two entries already listed, in no set order.
PFDN4 (UniProt Q9NQP4)
inactive: [1] -0.019 | crizotinib -0.067 | [2] -0.086 | [3] 0.01 | duvelisib 0.066 | gandotinib -0.082 | tozasertib -0.113 | [4] -0.05 | doramapimod 0.065 | ispinesib -0.077 | bafetinib -0.016 | [5] 0.044 | nilotinib 0.006 | [6] 0.005 | dasatinib 0.024 | [7] 0.002 | [8] -0.043 | [9] 0.034 | tipifarnib 0.078 | mubritinib 0.035

PLCH1 (UniProt Q4KWH8)
inactive: [1] 0.045 | crizotinib -0.023 | [2] 0.023 | [3] 0.109 | duvelisib 0.023 | gandotinib -0.22 | tozasertib -0.08 | [4] 0.052 | doramapimod 0.008 | ispinesib -0.138 | bafetinib 0.059 | [5] -0.042 | nilotinib -0.128 | [6] -0.029 | dasatinib 0.01 | [7] 0.005 | [8] -0.03 | [9] 0.055 | tipifarnib 0.03 | mubritinib -0.008

Following part.

PGLS (UniProt O95336)
inactive: [1] -0.061 | crizotinib 0.018 | [2] 0.23 | [3] -0.132 | duvelisib 0.31 | gandotinib 0.034 | tozasertib 0.063 | [4] -0.032 | doramapimod -0.014 | ispinesib 0.246 | bafetinib 0.068 | [5] 0.02 | nilotinib 0.069 | [6] -0.004 | dasatinib -0.014 | [7] -0.03 | [8] 0.045 | [9] 0.309 | tipifarnib 0.055 | mubritinib 0.051

PIGS (UniProt Q96S52)
inactive: [1] 0.004 | crizotinib -0.009 | [2] -0.036 | [3] 0.053 | duvelisib 0.053 | gandotinib -0.037 | tozasertib -0.016 | [4] 0.035 | doramapimod 0.008 | ispinesib -0.007 | bafetinib -0.076 | [5] -0.016 | nilotinib -0.054 | [6] 0.046 | dasatinib -0.034 | [7] -0.053 | [8] -0.011 | [9] 0 | tipifarnib 0.026 | mubritinib -0.012

PFDN2 (UniProt Q9UHV9)
inactive: [1] -0.011 | crizotinib 0.012 | [2] 0.061 | [3] -0.019 | duvelisib 0.057 | gandotinib -0.041 | tozasertib 0.006 | [4] -0.002 | doramapimod 0.014 | ispinesib 0.004 | bafetinib -0.045 | [5] -0.021 | nilotinib 0.003 | [6] -0.004 | dasatinib 0.024 | [7] -0.021 | [8] 0.014 | [9] 0.023 | tipifarnib 0.017 | mubritinib 0.047

PITPNB isoform 3 (UniProt P48739)
inactive: [1] 0.089 | crizotinib 0.105 | [2] 0.066 | [3] -0.04 | duvelisib 0.072 | gandotinib 0.042 | tozasertib 0.013 | [4] -0.039 | doramapimod -0.026 | ispinesib 0.18 | bafetinib 0.026 | [5] -0.005 | nilotinib 0.009 | [6] 0.057 | dasatinib 0.037 | [7] 0.003 | [8] 0.044 | [9] 0.036 | tipifarnib 0.036 | mubritinib 0.011

PHF10 (UniProt Q8WUB8)
inactive: [1] -0.015 | crizotinib -0.131 | [2] -0.015 | [3] 0.207 | duvelisib 0 | gandotinib 0.05 | tozasertib 0.07 | [4] 0.042 | doramapimod 0.005 | ispinesib 0.076 | bafetinib 0.04 | [5] 0.023 | dasatinib 0.001 | [8] 0.181 | [9] -0.096 | tipifarnib -0.007

PIGU (UniProt Q9H490)
inactive: [1] -0.105 | crizotinib -0.14 | [2] 0.151 | [3] -0.145 | duvelisib -0.004 | gandotinib -0.111 | tozasertib 0.045 | [4] -0.012 | doramapimod 0.062 | ispinesib 0.019 | bafetinib -0.058 | [5] 0.052 | nilotinib -0.058 | [6] -0.01 | dasatinib -0.053 | [7] -0.054 | [8] -0.002 | [9] 0.016 | tipifarnib 0.057 | mubritinib 0.066
